Source: article PMC10716476
No constants are given. Whether binding was seen depends on the method and setting. For some assays here: Sequences can lack the tags named with a protein.

Assays:
[1] = biological target: HVO_0758 (zinc finger μ-protein from Haloferax volcanii), heterologously produced (Haloferax volcanii) (UniProt D4GTQ1); assay: NMR relaxation (rotational correlation time); 15N-labelled sample, 600 MHz; 25 mM BisTris pH 7, 1 M NaCl, 5 mM 2-mercaptoethanol, 100 uM ZnCl2, 298 K; experimental tau-c (TENSOR2, from R1, R2, hetNOE) compared with tau-c calculated from the structure (Hydronmr); both purified
[2] = biological target: HVO_0758 with hexahistidine tag, homologously produced (Haloferax volcanii) (UniProt D4GTQ1); assay: SEC; preparative SEC of the nickel chelating eluate on SuperDex 75 Increase (10/30), 2.1 M NaCl, 20 mM HEPES pH 7.5, 0.4 mL/min; standard curve with aprotinin, RNAse A, ovalbumin, conalbumin; both purified

Row | binding [1] | binding [2] | Binder
1 | no binding | – | HVO_0758 (zinc finger μ-protein from Haloferax volcanii), heterologously produced (protein, UniProt D4GTQ1 1-56) MKTTRKGLRDGELEKDTYGRLTCSECGESLKKKNDPDEVFSVRICADCGREWKELR
2 | – | no binding | HVO_0758 with hexahistidine tag, homologously produced (protein, UniProt D4GTQ1 1-56) MKTTRKGLRDGELEKDTYGRLTCSECGESLKKKNDPDEVFSVRICADCGREWKELR
